Drawing on paper PMC8260793, “A split protease-E. coli ClpXP system quantifies protein–protein interactions in Escherichia coli cells” (Communications Biology, 2021), this text covers binding for four molecules.

Results are given in words; binding and its absence hold for the method and conditions named. Binding seen in cells or lysates may run through a third protein. Some results given as binding are weak or reduced against the parent protein; the word gives no strength. For part of these data: Tags and fused reporters may be left off the sequences shown.

Experiment [1] addresses T1, Cas5 of E. coli K12 Type I-E CRISPR/Cas complex (E. coli K12) (UniProt Q46898).
T1 sequence: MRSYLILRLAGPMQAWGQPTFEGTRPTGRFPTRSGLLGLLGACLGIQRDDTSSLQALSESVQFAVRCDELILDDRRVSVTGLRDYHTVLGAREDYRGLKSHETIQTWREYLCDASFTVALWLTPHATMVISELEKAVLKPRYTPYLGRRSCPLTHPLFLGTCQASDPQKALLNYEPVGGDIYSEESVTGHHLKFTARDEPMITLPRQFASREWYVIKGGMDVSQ
Put plainly: split reporter; SPEC profiling of CRISPR/Cas effectors and Cas3 / Cas2-3 mutants in E. coli cells; sfGFP fluorescence by flow cytometry; interaction intensity normalized to cells expressing wt HRV 3 C protease. A general note: In flow cytometry, cells or beads pass a laser one at a time.

Experiment [2] concerns the target T2, Cas6 of E. coli K12 Type I-E CRISPR/Cas complex (E. coli K12) (UniProt Q46897).
T2 sequence: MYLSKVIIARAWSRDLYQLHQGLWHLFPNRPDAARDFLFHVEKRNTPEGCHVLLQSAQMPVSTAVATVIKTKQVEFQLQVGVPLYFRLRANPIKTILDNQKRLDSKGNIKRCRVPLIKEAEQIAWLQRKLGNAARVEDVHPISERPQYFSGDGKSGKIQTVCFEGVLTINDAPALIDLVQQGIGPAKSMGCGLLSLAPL
The experiment is described as above.

The target in experiment [3] is T3, Lto1 from Fe-S protein assembly (CIA) machinery of Saccharomyces cerevisiae (Saccharomyces cerevisiae) (UniProt P53846).
T3 sequence: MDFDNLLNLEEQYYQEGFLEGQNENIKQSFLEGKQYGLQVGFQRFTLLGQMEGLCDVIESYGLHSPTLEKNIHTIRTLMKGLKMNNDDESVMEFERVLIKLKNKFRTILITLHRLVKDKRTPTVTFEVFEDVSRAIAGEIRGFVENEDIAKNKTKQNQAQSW
The experiment is described as follows: split reporter; SPEC: prey and bait fused to the N- and C-terminal split HRV 3 C protease (split at K82, L94 or N107); re-assembled protease cleaves SsrA off sfGFP-LEVLFQGP-SsrA (on a plasmid) in E. coli BL21(DE3); sfGFP fluorescence by flow cytometry; 25 °C, 8 h induction.

Experiment [4] deals with T4, Cas8 of E. coli K12 Type I-E CRISPR/Cas complex (E. coli K12) (UniProt Q46901).
T4 sequence: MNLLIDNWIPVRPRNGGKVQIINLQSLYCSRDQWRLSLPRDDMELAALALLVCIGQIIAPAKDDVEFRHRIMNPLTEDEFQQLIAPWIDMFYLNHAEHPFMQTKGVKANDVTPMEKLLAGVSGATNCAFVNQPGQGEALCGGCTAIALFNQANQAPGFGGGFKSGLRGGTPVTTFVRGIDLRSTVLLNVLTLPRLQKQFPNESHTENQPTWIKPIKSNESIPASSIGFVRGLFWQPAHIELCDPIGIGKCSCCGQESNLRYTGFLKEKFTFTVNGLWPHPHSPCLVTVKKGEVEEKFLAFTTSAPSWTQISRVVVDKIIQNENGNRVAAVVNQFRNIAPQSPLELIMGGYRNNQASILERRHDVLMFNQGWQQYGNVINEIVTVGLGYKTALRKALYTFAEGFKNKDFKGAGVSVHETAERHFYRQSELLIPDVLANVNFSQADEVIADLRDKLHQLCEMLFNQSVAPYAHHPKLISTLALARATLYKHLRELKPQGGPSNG
The experiment is described as follows: split reporter; SPEC profiling of CRISPR/Cas effectors and Cas3 / Cas2-3 mutants in E. coli cells; sfGFP fluorescence by flow cytometry; interaction intensity normalized to cells expressing wt HRV 3 C protease.

The target in experiment [5] is T5, Cas1 of E. coli K12 Type I-E CRISPR/Cas complex (E. coli K12) (UniProt Q46896).
T5 sequence: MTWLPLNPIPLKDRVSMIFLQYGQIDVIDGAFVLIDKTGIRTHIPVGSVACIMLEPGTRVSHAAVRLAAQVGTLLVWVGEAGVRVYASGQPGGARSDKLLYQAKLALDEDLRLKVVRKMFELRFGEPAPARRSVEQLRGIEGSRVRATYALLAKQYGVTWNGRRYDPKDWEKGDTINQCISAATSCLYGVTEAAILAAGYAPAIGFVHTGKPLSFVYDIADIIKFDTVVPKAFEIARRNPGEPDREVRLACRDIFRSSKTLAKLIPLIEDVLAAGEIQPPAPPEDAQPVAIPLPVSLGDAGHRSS
The description is as above.

B1: Cas2 of E. coli K12 Type I-E CRISPR/Cas complex (protein, UniProt P45956 1-94)
chain: MSMLVVVTENVPPRLRGRLAIWLLEVRAGVYVGDVSAKIREMIWEQIAGLAEEGNVVMAWATNTETGFEFQTFGLNRRTPVDLDGLRLVSFLPV
As to B1, the binding entry in experiment [1] and in experiment [2] was “binds weakly” in each case.

B2: Yae1 from Fe-S protein assembly (CIA) machinery of Saccharomyces cerevisiae (protein, UniProt P47118 1-141)
chain: MSNTWDDVWASDSDVETERSPDLVKLRENHSKRGYLDGIVSSKEEKLQEGFNDGFPTGAKLGKQVGIIMGILLGLRTRFGDEDEDLSKAYIDAQKELRINKVLSKSIFDPNFDLQEKHPLITKWTDIANTYCEKYHVPSIQ
Regarding B2, the binding result in experiment [3] is listed as “binds”.

B3: Cas5 of E. coli K12 Type I-E CRISPR/Cas complex (protein, UniProt Q46898 1-224)
chain: MRSYLILRLAGPMQAWGQPTFEGTRPTGRFPTRSGLLGLLGACLGIQRDDTSSLQALSESVQFAVRCDELILDDRRVSVTGLRDYHTVLGAREDYRGLKSHETIQTWREYLCDASFTVALWLTPHATMVISELEKAVLKPRYTPYLGRRSCPLTHPLFLGTCQASDPQKALLNYEPVGGDIYSEESVTGHHLKFTARDEPMITLPRQFASREWYVIKGGMDVSQ
With B3, the binding result in experiment [4] was “binds weakly”.

B4: Cas3 of E. coli K12 Type I-E CRISPR/Cas complex (natural protein, UniProt P38036 1-888, looked up)
chain: MEPFKYICHYWGKSSKSLTKGNDIHLLIYHCLDVAAVADCWWDQSVVLQNTFCRNEMLSKQRVKAWLLFFIALHDIGKFDIRFQYKSAESWLKLNPATPSLNGPSTQMCRKFNHGAAGLYWFNQDSLSEQSLGDFFSFFDAAPHPYESWFPWVEAVTGHHGFILHSQDQDKSRWEMPASLASYAAQDKQAREEWISVLEALFLTPAGLSINDIPPDCSSLLAGFCSLADWLGSWTTTNTFLFNEDAPSDINALRTYFQDRQQDASRVLELSGLVSNKRCYEGVHALLDNGYQPRQLQVLVDALPVAPGLTVIEAPTGSGKTETALAYAWKLIDQQIADSVIFALPTQATANAMLTRMEASASHLFSSPNLILAHGNSRFNHLFQSIKSRAITEQGQEEAWVQCCQWLSQSNKKVFLGQIGVCTIDQVLISVLPVKHRFIRGLGIGRSVLIVDEVHAYDTYMNGLLEAVLKAQADVGGSVILLSATLPMKQKQKLLDTYGLHTDPVENNSAYPLINWRGVNGAQRFDLLAHPEQLPPRFSIQPEPICLADMLPDLTMLERMIAAANAGAQVCLICNLVDVAQVCYQRLKELNNTQVDIDLFHARFTLNDRREKENRVISNFGKNGKRNVGRILVATQVVEQSLDVDFDWLITQHCPADLLFQRLGRLHRHHRKYRPAGFEIPVATILLPDGEGYGRHEHIYSNVRVMWRTQQHIEELNGASLFFPDAYRQWLDSIYDDAEMDEPEWVGNGMDKFESAECEKRFKARKVLQWAEEYSLQDNDETILAVTRDGEMSLPLLPYVQTSSGKQLLDGQVYEDLSHEQQYEALALNRVNVPFTWKRSFSEVVDEDGLLWLEGKQNLDGWVWQGNSIVITYTGDEGMTRVIPANPK
notes: Cas3, effector of the type I-E CRISPR/Cas complex of E. coli K12; source: E. coli BL21(DE3) or BL21(DE3)-SPEC, expressed in the cells (IPTG induction)
For the molecule B4, the binding result in experiment [5] is recorded as “binds”; in experiment [2], “binds weakly”.
